At least one compound was matched to its structure with a doubt left.
Test system: bladder muscle
Experiment: MEA recording of spontaneous muscle contraction of bladder muscle
Format: cell-based, Wistar rats or mice
Conditions: retigabine 10 μM, following recovery from acetylcholine

Which “phasic contraction (number of contractions in five minutes)” value does the source give for CCOC(=O)Nc1ccc(NCc2ccc(F)cc2)cc1N [retigabine] here?
The value was “inhibited phasic contraction”.
